{"source": "the supplement of paper PMC8256030", "note": "This is one part of the list. This data set is noisy: repeats of one test often differ as much as different tests do.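 HEK293T cells were given each compound shortly before transfection with a reporter in which red mCherry is followed by the SARS-CoV-2 frameshift element and then GFP in the −1 frame, so GFP appears only after frameshifting.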"}
{"system": "HEK293T", "assay": "percent viability (nuclei count) relative to control; higher = more viable cells", "settings": "10 µM; 24 h", "units": {"percent viability": "%"}}
{"smiles": "COc1ccc(CCN(C)CCC[C@](C#N)(c2ccc(OC)c(OC)c2)C(C)C)cc1OC", "note": "[dexverapamil]", "percent viability": 371}
{"smiles": "O=C(Nc1ccccc1)OCC(CN1CCCCC1)OC(=O)Nc1ccccc1", "note": "(stereo not drawn)", "percent viability": 175}
{"smiles": "CCOC(=O)C1=C[C@@H](OC(CC)CC)[C@H](NC(C)=O)[C@@H](N)C1", "percent viability": 202}
{"smiles": "NS(=O)(=O)NCc1ccccc1", "note": "[benzylsulfamide]", "percent viability": 298}
{"smiles": "CCCCCCCCCCCCCC[n+]1ccc(C)cc1", "note": "[miripirium]", "percent viability": 110}
{"smiles": "CCC1=C[C@@H]2CN(C1)Cc1c([nH]c3ccccc13)[C@@](C(=O)OC)(c1cc3c(cc1OC)N(C)[C@H]1[C@@](O)(C(=O)OC)[C@H](OC(C)=O)[C@]4(CC)C=CCN5CC[C@]31[C@@H]54)C2", "percent viability": 15.5}
{"smiles": "CCC(=O)NC[C@@H]1C[C@H]1c1cccc2c1CCO2", "note": "[Tasimelteon]", "percent viability": 297}
{"smiles": "O=C(O)c1ccc[n+]([O-])c1", "note": "[oxiniacic acid]", "percent viability": 74.2}
